Assay results as given in PubChem BioAssay AID493014 (National Center for Advancing Translational Sciences (NCATS), 2011).
Some of the results follow. Shown are side measurements of this screen, not its main read-out; they come without a call. The list favours compounds with an active or inconclusive main result. The note in brackets gives the kind of curve behind each potency; many fits are weak.

Assay: qHTS Assay to Find Inhibitors of Chronic Active B-Cell Receptor Signaling
Conditions: ABC-DLBCL IkBa-CBG/CBR reporter, luminescence ratio (green luciferase fused to IkBa over red control in TMD8 lymphoma cells), 4 h
Outline: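 TMD8 human ABC-DLBCL cells with doxycycline-inducible IκBα–green luciferase fusion and unfused red luciferase, in 0.5% FBS medium; compounds up to 46 uM, 4 h at 37C. Green/red luminescence ratio, filter-overlap corrected, fitted to concentration-response curves.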

[1] = measured here: CBR red luminescence, cell number
[2] = measured here: IkBa-CBG green luminescence

CCCS/C(N)=N/N=C/c1cc(C)ccc1O
AC50 [1]: 0.184 µM [rising, full curve, poor fit]

Cc1cc(C(=O)NC2CCC(C)CC2)c(C)o1 (stereo unspecified)
AC50 [1]: 25.1 µM [rising, single point]

COc1ccc(-n2c(SCC(=O)Nc3ccc(NC(C)=O)cc3)nc3c([nH]c4ccccc43)c2=O)cc1OC
AC50 [2]: 14.1 µM [falling, partial curve, poor fit]

Clc1ccc(CN2C3=NCCN3c3ccccc32)cc1Cl
AC50 [1]: 22.4 µM [falling, single point]

O=C(N/N=C/c1cccs1)[C@H]1C[C@@H]1c1ccccc1
AC50 [1]: 0.461 µM [rising, full curve, poor fit]

O=[N+]([O-])c1ccc2nc(-c3ccccc3)cc(-c3ccccc3)c2c1
AC50 [1]: 16.4 µM [rising, single point]

CCSc1nc(-c2ccccc2)nc(C(Cl)Cl)n1
AC50 [1]: 14.6 µM [rising, partial curve] | AC50 [2]: 20.6 µM [falling, partial curve, poor fit]

COCCN=C(NS(=O)(=O)c1cccs1)c1ccccc1Cl
AC50 [1]: 29.1 µM [rising, single point]

Cc1nc(SCCOc2ccc(F)cc2)c2ccccc2n1
AC50 [1]: 2 µM [rising, partial curve, poor fit]

CC(=O)c1cccn1S(=O)(=O)c1ccccc1
AC50 [1]: 20 µM [rising, partial curve, poor fit]

O=C(NCCCN1CCCC1=O)C1CCN(S(=O)(=O)c2cc(C(F)(F)F)ccc2Cl)CC1
AC50 [1]: 20.6 µM [rising, partial curve] | AC50 [2]: 20.6 µM [falling, partial curve, poor fit]

Cc1ccc(N=c2sc(C)c(C)n2C)cc1
AC50 [1]: 23.1 µM [rising, single point]

O=C(COc1ccc(S(=O)(=O)N2CCCC2)cc1Cl)NC1CC1
AC50 [1]: 16.4 µM [rising, single point]

CN1C(=O)C(O)(CC(=O)c2ccccn2)c2cc(Br)ccc21 (stereo unspecified)
AC50 [1]: 25.9 µM [rising, single point] | AC50 [2]: 29.1 µM [falling, single point]

CC(=O)c1cc(C#N)c(N2CCN(c3ccccc3)CC2)nc1C
AC50 [1]: 4.47 µM [rising, partial curve, poor fit]

CCOc1ccc(NC(=O)CN(C)C(=O)C2CSC3(C)CCC(=O)N23)cc1OCC (stereo unspecified)
AC50 [1]: 29.1 µM [rising, single point]

O=C(/C=C/C=C/c1ccc2c(c1)OCO2)N1CCCCC1
AC50 [1]: 20.6 µM [falling, partial curve, poor fit]

O=C(COC(=O)c1ccc(F)cc1)Nc1ccccc1N1CCOCC1
AC50 [1]: 0.146 µM [rising, full curve]

O=c1c2ccccc2nc2n1CCc1c-2[nH]c2ccccc12
AC50 [1]: 9.2 µM [falling, partial curve, poor fit]

CCn1c(SCC(=O)c2ccccc2)nnc1-c1cnccn1
AC50 [1]: 29.1 µM [falling, single point]

C[C@@H]1O[C@@H](OC[C@H]2O[C@@H](Oc3c(-c4ccc(O)cc4)oc4cc(O)cc(O)c4c3=O)[C@H](O)[C@@H](O)[C@@H]2O)[C@H](O)[C@H](O)[C@H]1O
AC50 [1]: 1.64 µM [falling, full curve, poor fit]

COc1ccc(-c2[nH]nc3c2C(c2ccoc2)C(C#N)=C(N)O3)cc1 (stereo unspecified)
AC50 [1]: 5.8 µM [falling, partial curve, poor fit]

COc1ccc(-n2cc(CN[C@H]3CCCCNC3=O)c(-c3cccc(F)c3)n2)cc1
AC50 [1]: 35.5 µM [falling, single point]

CCC(=O)OCC(=O)[C@@]1(OC(=O)CC)[C@@H](C)C[C@H]2[C@@H]3CCC4=CC(=O)C=C[C@]4(C)[C@@]3(Cl)[C@@H](O)C[C@@]21C
AC50 [1]: 20.6 µM [falling, single point]

O=C(CNC(=O)c1ccco1)Nc1ccc(N2CCCCCC2)cc1
AC50 [1]: 7.31 µM [rising, partial curve, poor fit]

COc1cc(OC)c(OC)cc1/C=C1\Oc2cc(OCC(=O)N3Cc4ccccc4C[C@H]3C(=O)O)ccc2C1=O
AC50 [1]: 2.82 µM [falling, partial curve, poor fit]

CN(Cc1ccccc1NS(=O)(=O)c1ccc(Cl)cc1)C1CCCCC1
AC50 [1]: 0.631 µM [rising, full curve, poor fit]

COc1ccc(Nc2nc(CN3CCOCC3)nc3sc4c(c23)CCC(C)C4)cc1OC (stereo unspecified)
AC50 [1]: 0.731 µM [rising, full curve, poor fit]

Cc1nc2ccccc2c(=O)n1/N=C/c1ccncc1
AC50 [1]: 4.61 µM [rising, partial curve]

O=C(Nc1cccc(S(=O)(=O)N2CCCCCC2)c1)c1ccc(Cl)nc1
AC50 [1]: 8.2 µM [falling, partial curve, poor fit]

CC(C)Oc1ccc(C(=O)NC2CCCCC2)cc1
AC50 [1]: 1.46 µM [falling, full curve]

CCc1[nH]nc2c1C(c1cccc(OC(=O)N3CCOCC3)c1)C(C#N)=C(N)O2 (stereo unspecified)
AC50 [1]: 18.4 µM [falling, single point] | AC50 [2]: 16.4 µM [rising, partial curve, poor fit]

CCOC(=O)Cc1cc(=O)n2[nH]c(-c3ccc(C)cc3)cc2n1
AC50 [1]: 23.1 µM [falling, partial curve, poor fit]

Cn1nnnc1SCc1nc2scc(-c3ccc(Cl)cc3)c2c(=O)[nH]1
AC50 [1]: 25.1 µM [rising, single point]

O=C(O/N=C(\c1ccccc1)c1ccccn1)c1cccc2ccccc12
AC50 [1]: 9.2 µM [rising, partial curve]

COc1ccc(-c2cn(-c3ccc(SC(F)F)cc3)c3[n+]2CCC3)cc1OC
AC50 [1]: 6.51 µM [rising, single point]

CN(C)/C=C(\C#N)C(=O)N/N=C(\CC(=O)C(F)(F)F)c1ccco1
AC50 [1]: 14.1 µM [rising, single point]

CCOc1ccc(-n2nnnc2SCC(=O)c2ccccc2)cc1
AC50 [1]: 35.5 µM [rising, partial curve, poor fit] | AC50 [2]: 35.5 µM [falling, single point]

Cc1c(C(=O)OC2CCCCC2)sc2nc[nH]c(=O)c12
AC50 [1]: 9.2 µM [rising, partial curve]

Cc1cc2c(cc1C)NC(c1c(C)n(C)n(-c3ccccc3)c1=O)C1=C(CC(C)(C)CC1=O)N2 (stereo unspecified)
AC50 [1]: 0.326 µM [rising, full curve, poor fit]

CC(C)(C)C(=O)N1CCN(c2nc3ccccc3s2)CC1
AC50 [1]: 3.55 µM [rising, partial curve, poor fit]

CC(C)(C)NS(=O)(=O)c1cccc(S(=O)(=O)c2cccc(S(=O)(=O)NC(C)(C)C)c2)c1
AC50 [1]: 0.282 µM [rising, full curve, poor fit]

CCN(C(=O)C(=O)c1c[nH]c2ccccc12)c1ccccc1
AC50 [1]: 6.31 µM [falling, partial curve]

O=C(COC(=O)[C@H](Cc1ccccc1)NC(=O)c1cccs1)NC1CCCCC1
AC50 [1]: 25.9 µM [falling, single point]

CC(C)CCn1cnc2c(cnn2-c2ccc(Cl)cc2)c1=O
AC50 [1]: 6.31 µM [falling, single point]

NCCCC[C@@H]1NC(=O)c2cc([N+](=O)[O-])cc(I)c2SC[C@@H](C(N)=O)NC(=O)[C@H](Cc2ccc(O)cc2)NC1=O
AC50 [1]: 20.6 µM [rising, partial curve, poor fit]

Brc1ccc(N=C/C=C/C=C/Nc2ccc(Br)cc2)cc1
AC50 [1]: 0.562 µM [falling, partial curve, poor fit]

O=S1(=O)[C@H]2C[C@H](CO)O[C@@]2(CO)CN1Cc1ccc(-c2ccc(F)cc2)cc1
AC50 [1]: 23.1 µM [rising, partial curve] | AC50 [2]: 4.11 µM [falling, single point]

Cc1ccc(-c2nc3c(c(=O)[nH]c(=O)n3Cc3ccccc3)n2C)o1
AC50 [1]: 6.31 µM [rising, single point]

O=C(COc1cccnc1[N+](=O)[O-])Nc1ccc(Cl)c(S(=O)(=O)N2CCOCC2)c1
AC50 [1]: 35.5 µM [falling, single point]

Cc1ccc(C(=O)C(C)OC(=O)CCN2C(=O)C3C4C=CC(C5CC45)C3C2=O)cc1 (stereo unspecified)
AC50 [1]: 3.16 µM [rising, full curve, poor fit]

COc1ccc(C(CNC(=O)c2cccc(NS(=O)(=O)c3ccc(Br)cc3)c2)N(C)C)cc1 (stereo unspecified)
AC50 [1]: 25.9 µM [falling, single point]

C/C(=N\Nc1nc2ccccc2[nH]1)c1ccccn1
AC50 [1]: 8.91 µM [falling, partial curve, poor fit]

Cc1nn(-c2ccc(F)cc2)c2c1cc(C#N)c1nc3ccccc3n12
AC50 [1]: 0.82 µM [rising, full curve, poor fit]

O=C(Nc1ccc(OC(F)(F)F)cc1)c1ccccc1-n1cnnn1
AC50 [1]: 18.4 µM [rising, single point]

O=C(Nc1ccc(-n2cccc2)cc1)C1CC1
AC50 [1]: 0.112 µM [rising, full curve, poor fit] | AC50 [2]: 15.8 µM [falling, partial curve, poor fit]

O=C(Nc1nc2ccccc2[nH]1)c1ccccc1F
AC50 [1]: 2.24 µM [falling, full curve]

COc1cc(/C=C/c2nc3cc(Cl)ccc3c(=O)n2-c2ccc(C)cc2C)cc(OC)c1OC
AC50 [1]: 5.62 µM [falling, single point]

CC1CCCN(C(=O)c2ccc(-c3ccccc3Cl)o2)C1 (stereo unspecified)
AC50 [1]: 0.651 µM [rising, partial curve]
